Test: in vivo
Details: mouse, ip
Method: The mean lethal dose (LD50) was determined by the Litchfield and Wilcoxon method.

COC(=O)C1=C(C)NC(C)=C(C(=O)OC)C1c1ccccc1[N+](=O)[O-] [Nifedipine, 2,6-dimethyl-3,5-dimethoxycarbonyl-4-(O-nitrophenyl)-1,4-dihydropyridine] showed an LD50 at 240 h of 185 mg/kg.
